According to patent EP2045266A1, “Methods for treating and diagnosing a cancer secreting cath-D or Alzheimer's disease” (priority 2007, dated 2009):
No constants are given. Whether binding was seen depends on the method and setting. Binding seen in cells or lysates may run through a third protein. Some results given as binding are weak or reduced against the parent protein; the word gives no strength.

Sequences of proteins named here, by UniProt entry; tags and fusion partners are left off. Residues count along the entry.
UniProt P07339, residues 21-412: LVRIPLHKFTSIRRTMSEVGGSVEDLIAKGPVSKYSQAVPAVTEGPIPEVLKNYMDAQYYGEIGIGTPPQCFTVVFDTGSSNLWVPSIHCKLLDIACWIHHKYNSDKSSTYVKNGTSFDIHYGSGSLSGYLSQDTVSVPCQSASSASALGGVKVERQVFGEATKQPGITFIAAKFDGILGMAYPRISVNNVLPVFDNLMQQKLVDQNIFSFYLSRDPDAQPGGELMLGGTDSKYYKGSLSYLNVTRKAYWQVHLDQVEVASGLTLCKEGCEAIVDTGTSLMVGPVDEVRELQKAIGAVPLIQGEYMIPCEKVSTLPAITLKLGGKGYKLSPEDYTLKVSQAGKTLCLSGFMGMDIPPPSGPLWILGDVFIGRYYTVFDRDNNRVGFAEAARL

How the values were obtained:
[1] = biological target: GST-cath-D/52K (human) (UniProt P07339); experiment: GST pull-down competition, as summed up in the discussion
[2] = biological target: GST-cath-D/52K (human) (UniProt P07339); experiment: GST pull-down competition, increasing peptide; competitor of labelled LRP1β (1-476)

Binder: CRCLPGFLGDRCQYRQCSGYCENFGTCQMAADGSRQCRCTAYFEGSRCE [49-mer (349-397) LRP1 peptide]
- binding [1]: binds
- binding [2]: binds
